2 substances from publication PMC6858607 can be followed below.

The target in this experiment is Pseudomonas aeruginosa lectin LecB, biotinylated (P. aeruginosa) (UniProt Q9HYN5). Nature of the experiment: pull-down; NHKs stimulated with 5 ug/ml (106 nM) biotinylated LecB, lysates incubated with streptavidin beads, eluted, Western blot; also as a time series; only the target purified.

No constants are given. Whether binding was seen depends on the method and setting. In cells and extracts the contact can be indirect. Some results given as binding are weak or reduced against the parent protein; the word gives no strength.

Regarding “epidermal growth factor receptor 1 (from UniProt P00533 25-1210)”, the binding result is given as “binds”.
With “insulin-like growth factor-1 receptor (from UniProt P08069 31-1367)” the entry was “binds”.
